Here are results for two substances from doi:10.1101/2022.03.03.482736.

Results are given in words; binding and its absence hold for the method and conditions named.

Assay [1] has as its target BmPvs25(C-tag) (Plasmodium vivax) (UniProt O96555). Nature of the assay: SEC. (In gel filtration, larger molecules generally elute earlier.)
Assay [2] concerns the target BmPvs25(N-tag) (Plasmodium vivax) (UniProt O96555). Nature of the assay: SEC.

For “BmPvs25(C-tag) (from UniProt O96555 23-195) (domain or fragment)”, in assay [1], the binding result is “no binding”.

As for “BmPvs25(N-tag) (from UniProt O96555 23-195) (domain or fragment)”, the binding result in assay [2] is “no binding”.
